Assay results reported in publication PMC6680840 (Molecules, 2019).

Amino acid sequences for entries named in this document (tags omitted). Residues count along the entry.
UniProt P05067, 672-713: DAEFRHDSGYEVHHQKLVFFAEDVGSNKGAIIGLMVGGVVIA

Molecular target: T1, Aβ1-42 aggregation (Homo sapiens, UniProt P05067)
T1 construct: pre-treated Aβ1–42 (GL Biochem Ltd); purchased GL Biochem Ltd, shanghai, China
Experiment: Inhibition of Aβ1-42 aggregation, thioflavin T (ThT) method
Type: biochemical

COc1cc2c(cc1OC)C(=O)C(CC1CCN(Cc3ccccc3)CC1)C2 (stereo not shown) [donepezil, reference compound]
inhibition ratio towards Aβ1-42 aggregation: 25.8 ± 6.2%
